Measured values published in PubChem BioAssay AID248 (DTP/NCI, 2004).
The list is a part of this screen's results and no random one: it is rich in T/C values a quarter to a half above the control, in often repeated tests (any T/C) and in doses without a T/C. Further doses and runs are listed elsewhere. T/C gives the treated animals as a percentage of the vehicle group. Some entries give survivors of the animals treated and no T/C: the source files T/C as zero there, which appears to mark a toxic dose or a test without result, not a measured value. Some doses without a T/C left all or most animals alive at the check, yet need not have been tolerated: the source hardly ever lists a survival T/C far under the control, and the zero likely stands for such cases as well. Counts of survivors are from the toxicity check (mostly the fifth day) where no day follows; animals may have died later. Schedules are NCI's codes, read here as Q, the interval in days (D) or hours (H), X, the number of doses. Some structures stand for samples that the source files as different forms (salt, stereo form or complex); doses refer to the form tested. For survival time, the PubChem record calls one and a half times the control and up active, and a quarter to a half above the control has no call in these data; cut-offs in other NCI protocols can differ. Some entries hold several experiments; the results are listed from low to high. Some T/C values are followed by the survivors on the day toxicity was checked, most often the fifth; without a count, all were alive then.

Test system: L1210 leukemia ip in BDF1 mice, survival T/C
Assay: NCI In Vivo Anticancer Drug Screen. Data for tumor model L1210 Leukemia (intraperitoneal) in B6D2F1 (BDF1) mice
Conditions: T/C endpoint: mean survival time, higher T/C = longer survival
[1] = dose: 20.0 mg/kg/injection, schedule: Q01DX009 (sc), vehicle: saline
[2] = dose: 400.0 mg/kg/injection, schedule: Q01DX009 (ip), vehicle: Klucel (hydroxypropylcellulose) (HPC)
[3] = dose: 100.0 mg/kg/injection, schedule: Q04DX002 (ip), vehicle: saline with Tween-80
[4] = dose: 200.0 mg/kg/injection, schedule: Q04DX002 (ip), vehicle: saline with Tween-80
[5] = dose: 400.0 mg/kg/injection, schedule: Q04DX002 (ip), vehicle: saline with Tween-80
[6] = dose: 400.0 mg/kg/injection, schedule: Q01DX001 (ip), vehicle: saline
[7] = dose: 400.0 mg/kg/injection, schedule: Q04DX003 (ip), vehicle: saline

Which T/C (dose: 1.25 mg/kg/injection, schedule: Q01DX009 (ip), vehicle: saline) does the source give for COc1cc(NS(C)(=O)=O)ccc1Nc1c2ccccc2nc2c(C)cccc12 here?
The T/C was 139 % of control.

What about the T/C (dose: 2.5 mg/kg/injection, schedule: Q01DX009 (ip), vehicle: Klucel (hydroxypropylcellulose) (HPC)) of the same compound?
Its T/C is 147 % of control.

And the T/C (dose: 2.5 mg/kg/injection, schedule: Q01DX009 (ip), vehicle: saline)?
The T/C was 133 % of control.

What about the T/C (dose: 2.5 mg/kg/injection, schedule: Q01DX009 (sc), vehicle: saline) of the same compound?
Its T/C is 130 % of control.

And the T/C (dose: 2.5 mg/kg/injection, schedule: Q04DX003 (ip), vehicle: saline)?
The T/C was 127 % of control.

What about the T/C (dose: 5.0 mg/kg/injection, schedule: Q01DX009 (ip), vehicle: saline) of the same compound?
Its T/C is 129 % of control.

And the T/C (dose: 5.0 mg/kg/injection, schedule: Q01DX009 (sc), vehicle: saline)?
Its T/C is 127 and 145 % of control.

And the T/C (dose: 5.0 mg/kg/injection, schedule: Q04DX003 (ip), vehicle: saline, evaluated on day 30)?
Its T/C is 134 % of control.

And the T/C (dose: 5.0 mg/kg/injection, schedule: Q04DX003 (ip), vehicle: saline, evaluated on day 60)?
The T/C was 139 % of control.

What about the T/C (dose: 10.0 mg/kg/injection, schedule: Q01DX009 (sc), vehicle: saline) of the same compound?
The T/C was 137 % of control.

What about the survivor count (dose: 20.0 mg/kg/injection, schedule: Q01DX009 (ip), vehicle: Klucel (hydroxypropylcellulose) (HPC)) of the same compound?
Its survivor count is 6 of 6.

What about the T/C [1] of the same compound?
Its T/C is 137 % of control.

And the survivor count [1]?
The survivor count was 10 of 10.

What about the survivor count (dose: 40.0 mg/kg/injection, schedule: Q04DX003 (ip), vehicle: saline) of the same compound?
Its survivor count is 3 of 6.

What about the survivor count (dose: 80.0 mg/kg/injection, schedule: Q04DX003 (ip), vehicle: saline) of the same compound?
The survivor count was 1 of 6.

With Cc1cc(Cl)c(N)[c]([Hg][I])c1F as the compound, how does the survivor count (dose: 100.0 mg/kg/injection, schedule: Q01DX001 (ip), vehicle: Klucel (hydroxypropylcellulose) (HPC)) read?
Its survivor count is 0 of 6.

And the survivor count (dose: 200.0 mg/kg/injection, schedule: Q01DX001 (ip), vehicle: Klucel (hydroxypropylcellulose) (HPC))?
The survivor count was 0 of 6.

And the survivor count (dose: 400.0 mg/kg/injection, schedule: Q01DX001 (ip), vehicle: Klucel (hydroxypropylcellulose) (HPC))?
The survivor count was 0 of 6.

What does the source list for O=C(O)/C(=C\c1ccc(Cl)cc1)c1cccc2ccccc12?
survivor count (dose: 100.0 mg/kg/injection, schedule: Q04DX003 (ip), vehicle: Klucel (hydroxypropylcellulose) (HPC)): 6 of 6; survivor count [2]: 0 of 6

What does the source list for CS(=O)(=O)N1C(=O)c2ccccc2C1=O?
survivor count [3]: 1 of 3; survivor count [4]: 1 of 3; survivor count [5]: 0 of 3

With O=C(O)/C(I)=C(\I)C(=O)O as the compound, how does the survivor count (dose: 400.0 mg/kg/injection, schedule: Q04DX002 (ip), vehicle: saline) read?
The survivor count was 1 of 3.

CCCCCCCCCCCCCC[N+](C)(C)CC#CC[N+](C)(C)CCCCCCCCCCCCCC was tested. Which survivor count [3] did it give?
Its survivor count is 0 of 3.

What about the survivor count [4] of the same compound?
Its survivor count is 0 of 3.

What about the survivor count [5] of the same compound?
Its survivor count is 0 of 3.

How did the survivor count [5] turn out when CCCCCCCC(=O)N1CCCCC1CC (stereo unspecified) was run?
Its survivor count is 2 of 3.

What does the source list for CC(=O)N(c1ccccn1)c1ccccn1?
survivor count [6]: 3 of 6; survivor count [7]: 2 of 6

Which T/C (dose: 33.0 mg/kg/injection, schedule: Q01DX009 (ip), vehicle: other) does the source give for CC(C)Cc1nc(/N=N/N(C)C)c(C(N)=O)[nH]1 here?
The T/C was 129 % of control.

What about the T/C (dose: 50.0 mg/kg/injection, schedule: Q01DX009 (ip), vehicle: other) of the same compound?
Its T/C is 132 % of control.

What about the T/C (dose: 75.0 mg/kg/injection, schedule: Q01DX007 (ip), vehicle: other) of the same compound?
The T/C was 138 % of control.

What about the T/C (dose: 112.0 mg/kg/injection, schedule: Q01DX007 (ip), vehicle: other) of the same compound?
The T/C was 137 % of control [5 of 6 alive].

Which survivor count [6] does the source give for Cc1ccc(S(=O)(=O)CCN2CCN(C)CC2)cc1 here?
Its survivor count is 0 of 4.

COc1cc(C2N(c3ccccc3)CCN2c2ccccc2)cc(OC)c1OC was tested. Which survivor count (dose: 200.0 mg/kg/injection, schedule: Q01DX009 (ip), vehicle: Klucel (hydroxypropylcellulose) (HPC)) did it give?
The survivor count was 4 of 6.

CCCCC1(C)CCC(=O)O1 (stereo unspecified) was tested. Which T/C (dose: 100.0 mg/kg/injection, schedule: Q01DX001 (ip), vehicle: saline) did it give?
Its T/C is 126 % of control.

How did the survivor count [6] turn out when O=C(O)CCBr was run?
Its survivor count is 2 of 3.

Which survivor count [7] does the source give for NC(=O)c1cn[nH]c1N1CC[N+](CCCl)=N1 here?
The survivor count was 2 of 6.

With CN(C)N=Nc1ccccc1I as the compound, how does the survivor count (dose: 800.0 mg/kg/injection, schedule: Q01DX009 (ip), vehicle: Klucel (hydroxypropylcellulose) (HPC)) read?
Its survivor count is 3 of 6.

With CC1OC(n2cnc3c(N)nc(F)nc32)C(O)C1O (stereo unspecified) as the compound, how does the survivor count (dose: 75.0 mg/kg/injection, schedule: Q01DX001 (ip), vehicle: other) read?
The survivor count was 3 of 6.

And the survivor count (dose: 150.0 mg/kg/injection, schedule: Q01DX001 (ip), vehicle: other)?
Its survivor count is 0 of 6.

Which results are given for CCOc1cc[n+]([O-])cc1C?
survivor count (dose: 200.0 mg/kg/injection, schedule: Q01DX001 (ip), vehicle: carboxymethylcellulose (CMC)): 0 of 4; survivor count (dose: 400.0 mg/kg/injection, schedule: Q01DX001 (ip), vehicle: carboxymethylcellulose (CMC)): 0 of 4

What does the source list for COc1cccnc1/C=N/NC(N)=S?
T/C (dose: 3.13 mg/kg/injection, schedule: Q01DX009 (ip), vehicle: saline with Tween-80): 131 % of control; T/C (dose: 6.25 mg/kg/injection, schedule: Q01DX009 (ip), vehicle: saline with Tween-80): 142 % of control; survivor count [3]: 0 of 3; survivor count [4]: 0 of 3; survivor count [5]: 0 of 3

For [Br][Pb]([Br])([c]1ccccc1)[c]1ccccc1, which survivor count [2] is on record?
Its survivor count is 2 of 6.

With CN=C1N[N+]2=C(C)CCCC2(C)S1 (stereo unspecified) as the compound, how does the survivor count [7] read?
The survivor count was 0 of 4.
